Assay results as given in article PMC6214653.
Results are given in words; binding and its absence hold for the method and conditions named. Binding seen in cells or lysates may run through a third protein. Some results given as binding are weak or reduced against the parent protein; the word gives no strength.

Amino acid sequences for entries named in this document (tags omitted).
UniProt Q3URK3: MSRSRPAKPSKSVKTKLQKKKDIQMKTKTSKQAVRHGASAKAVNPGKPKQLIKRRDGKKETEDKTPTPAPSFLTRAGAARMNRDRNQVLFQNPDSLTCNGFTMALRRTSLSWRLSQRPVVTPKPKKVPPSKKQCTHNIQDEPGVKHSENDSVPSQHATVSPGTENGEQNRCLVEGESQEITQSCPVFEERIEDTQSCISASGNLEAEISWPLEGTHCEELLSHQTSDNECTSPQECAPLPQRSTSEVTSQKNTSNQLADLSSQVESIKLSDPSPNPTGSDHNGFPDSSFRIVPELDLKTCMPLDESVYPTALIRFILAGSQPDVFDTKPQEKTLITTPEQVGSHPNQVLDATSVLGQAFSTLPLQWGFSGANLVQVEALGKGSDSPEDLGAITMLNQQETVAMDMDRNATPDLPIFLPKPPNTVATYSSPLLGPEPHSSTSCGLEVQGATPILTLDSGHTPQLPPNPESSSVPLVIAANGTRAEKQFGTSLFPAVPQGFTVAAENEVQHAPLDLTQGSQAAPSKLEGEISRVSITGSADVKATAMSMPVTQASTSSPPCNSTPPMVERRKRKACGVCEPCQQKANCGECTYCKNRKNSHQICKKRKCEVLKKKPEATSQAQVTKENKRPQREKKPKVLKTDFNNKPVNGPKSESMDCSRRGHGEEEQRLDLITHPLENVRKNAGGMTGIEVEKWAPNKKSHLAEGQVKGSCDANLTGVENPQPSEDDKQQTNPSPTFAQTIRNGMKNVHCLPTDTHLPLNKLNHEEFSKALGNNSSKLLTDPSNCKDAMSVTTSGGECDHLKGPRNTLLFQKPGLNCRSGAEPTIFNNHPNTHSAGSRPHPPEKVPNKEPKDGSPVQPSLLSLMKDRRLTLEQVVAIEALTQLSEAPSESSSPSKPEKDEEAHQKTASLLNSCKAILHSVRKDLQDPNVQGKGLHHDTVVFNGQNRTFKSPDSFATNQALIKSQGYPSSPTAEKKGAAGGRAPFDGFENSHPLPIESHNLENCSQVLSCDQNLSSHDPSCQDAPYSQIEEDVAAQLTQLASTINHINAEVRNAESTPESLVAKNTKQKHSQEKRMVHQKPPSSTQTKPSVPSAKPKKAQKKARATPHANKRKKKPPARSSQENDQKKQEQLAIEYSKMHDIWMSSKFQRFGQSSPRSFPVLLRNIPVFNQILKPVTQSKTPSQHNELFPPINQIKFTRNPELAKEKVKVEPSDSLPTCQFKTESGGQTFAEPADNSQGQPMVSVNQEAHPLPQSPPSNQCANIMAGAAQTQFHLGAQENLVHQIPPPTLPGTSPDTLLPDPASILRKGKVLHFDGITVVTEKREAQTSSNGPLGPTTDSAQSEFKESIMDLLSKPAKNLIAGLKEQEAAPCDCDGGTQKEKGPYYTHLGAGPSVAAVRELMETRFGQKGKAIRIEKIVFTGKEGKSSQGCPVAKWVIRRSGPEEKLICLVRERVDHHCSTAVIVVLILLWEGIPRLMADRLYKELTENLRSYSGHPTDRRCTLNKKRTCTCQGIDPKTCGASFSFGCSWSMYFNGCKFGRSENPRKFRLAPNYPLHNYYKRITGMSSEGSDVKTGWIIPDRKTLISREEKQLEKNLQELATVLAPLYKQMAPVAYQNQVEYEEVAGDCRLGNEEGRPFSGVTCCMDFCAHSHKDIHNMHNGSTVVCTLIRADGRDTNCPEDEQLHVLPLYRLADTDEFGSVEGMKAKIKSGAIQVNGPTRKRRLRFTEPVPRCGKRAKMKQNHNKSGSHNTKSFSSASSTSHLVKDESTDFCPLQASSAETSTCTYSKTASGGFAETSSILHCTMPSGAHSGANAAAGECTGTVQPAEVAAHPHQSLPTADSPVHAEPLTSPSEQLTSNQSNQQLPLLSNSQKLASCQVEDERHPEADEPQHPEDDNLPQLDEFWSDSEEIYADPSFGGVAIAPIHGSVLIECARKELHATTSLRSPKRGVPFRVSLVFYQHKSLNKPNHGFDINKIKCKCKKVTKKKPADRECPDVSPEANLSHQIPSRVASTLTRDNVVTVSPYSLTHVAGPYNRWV

Biological target: endogenous full length TET1 with C-terminal 3xFLAG tag, wild type (WT mESCs) (mouse (endogenous in LF2 mESCs)) (UniProt Q3URK3)
Assay: co-IP; FLAG IP from WT and D2018A mESCs (TET1-3xFLAG from the endogenous locus); western blot for FLAG and OGT

- binding: binds
B1: endogenous OGT of mouse embryonic stem cells (enzyme, UniProt Q8CGY8 1-1046)
chain: MASSVGNVADSTEPTKRMLSFQGLAELAHREYQAGDFEAAERHCMQLWRQEPDNTGVLLLLSSIHFQCRRLDRSAHFSTLAIKQNPLLAEAYSNLGNVYKERGQLQEAIEHYRHALRLKPDFIDGYINLAAALVAAGDMEGAVQAYVSALQYNPDLYCVRSDLGNLLKALGRLEEAKACYLKAIETQPNFAVAWSNLGCVFNAQGEIWLAIHHFEKAVTLDPNFLDAYINLGNVLKEARIFDRAVAAYLRALSLSPNHAVVHGNLACVYYEQGLIDLAIDTYRRAIELQPHFPDAYCNLANALKEKGSVAEAEDCYNTALRLCPTHADSLNNLANIKREQGNIEEAVRLYRKALEVFPEFAAAHSNLASVLQQQGKLQEALMHYKEAIRISPTFADAYSNMGNTLKEMQDVQGALQCYTRAIQINPAFADAHSNLASIHKDSGNIPEAIASYRTALKLKPDFPDAYCNLAHCLQIVCDWTDYDERMKKLVSIVAEQLEKNRLPSVHPHHSMLYPLSHGFRKAIAERHGNLCLDKINVLHKPPYEHPKDLKLSDGRLRVGYVSSDFGNHPTSHLMQSIPGMHNPDKFEVFCYALSPDDGTNFRVKVMAEANHFIDLSQIPCNGKAADRIHQDGIHILVNMNGYTKGARNELFALRPAPIQAMWLGYPGTSGALFMDYIITDQETSPAEVAEQYSEKLAYMPHTFFIGDHANMFPHLKKKAVIDFKSNGHIYDNRIVLNGIDLKAFLDSLPDVKIVKMKCPDGGDNPDSSNTALNMPVIPMNTIAEAVIEMINRGQIQITINGFSISNGLATTQINNKAATGEEVPRTIIVTTRSQYGLPEDAIVYCNFNQLYKIDPSTLQMWANILKRVPNSVLWLLRFPAVGEPNIQQYAQNMGLPQNRIIFSPVAPKEEHVRRGQLADVCLDTPLCNGHTTGMDVLWAGTPMVTMPGETLASRVAASQLTCLGCLELIAKSRQEYEDIAVKLGTDLEYLKKIRGKVWKQRISSPLFNTKQYTMELERLYLQMWEHYAAGNKPDHMIKPVEVTESA
